In this test the test system is L1210 leukemia ip in BDF1 mice, survival T/C. Briefly: NCI In Vivo Anticancer Drug Screen. Data for tumor model L1210 Leukemia (intraperitoneal) in B6D2F1 (BDF1) mice. As to conditions: T/C endpoint: mean survival time, higher T/C = longer survival.
[1] abbreviates: dose: 200.0 mg/kg/injection, schedule: Q01DX009 (ip), vehicle: Klucel (hydroxypropylcellulose) (HPC).
Setting [2] is: dose: 400.0 mg/kg/injection, schedule: Q01DX009 (ip), vehicle: Klucel (hydroxypropylcellulose) (HPC).

The list shows only some results of the screen, not a fair sample: it is rich in T/C values a quarter to a half above the control, in often repeated tests (any T/C) and in doses without a T/C. Other doses and runs of a compound stand elsewhere. T/C gives the treated animals as a percentage of the vehicle group. Some entries give survivors of the animals treated and no T/C: the source holds a T/C of zero for them, seemingly a mark for toxic or unscored doses. Some doses without a T/C left all or most animals alive at the check, yet need not have been tolerated: survival well below the control is almost never listed, so the zero probably covers shortened survival too. Survivors were counted at the toxicity check, usually on the fifth day, unless a day is given; later deaths do not show. Schedules are NCI's codes, read here as Q, the interval in days (D) or hours (H), X, the number of doses. Some doses were run more than once; the values are given in rising order. For survival time, this PubChem deposit counts one and a half times the control or more as active, and values a quarter to a half above the control carry no call in these data; other NCI protocols may use other cut-offs.

Turning to `Cc1cc[n+](CC(=O)CCc2ccc(C(=O)C[n+]3ccc(C)cc3)cc2)cc1`, the survivor count (dose: 100.0 mg/kg/injection, schedule: Q04DX003 (ip), vehicle: saline) was 0 of 6; the survivor count (dose: 200.0 mg/kg/injection, schedule: Q04DX003 (ip), vehicle: saline) was 0 of 6; the survivor count (dose: 400.0 mg/kg/injection, schedule: Q04DX003 (ip), vehicle: saline) is recorded as 0 of 6.

Turning to `COc1ccc(/C=N/NC(=S)Nc2ccccc2)cc1OC`, the survivor count under setting [1] is on record as 0 of 6.

Consider `O=[N+]([O-])c1ccccc1C(=Nc1ccccc1)c1c(O)cc(O)cc1O`, for which the survivor count (dose: 400.0 mg/kg/injection, schedule: Q01DX009 (ip), vehicle: acetone) is listed as 0 of 6.

Consider `Cc1cc(N(CCCl)CCCl)ccc1/C=N\Nc1nncn1N`, for which the T/C is, setting by setting: (dose: 50.0 mg/kg/injection, schedule: Q01DX009 (ip), vehicle: carboxymethylcellulose (CMC)) 127 and 134 % of control; (dose: 200.0 mg/kg/injection, schedule: Q01DX009 (ip), vehicle: carboxymethylcellulose (CMC)) 144 % of control. Moreover, the survivor count (dose: 400.0 mg/kg/injection, schedule: Q01DX009 (ip), vehicle: carboxymethylcellulose (CMC)) is given as 5 of 6.

With `CCC(=O)OC1(c2ccccc2)CCN(C/C=C/c2cccc3ccccc23)CC1`, for the setting “dose: 400.0 mg/kg/injection, schedule: Q01DX001 (ip), vehicle: gum acacia”, the survivor count is recorded as 0 of 6.

On to `CCc1cc(C)cc(CC)c1N`, for which the survivor count under setting [2] was 0 of 6.

For `CNC(=O)OCC1=C(OC)C(=O)C(OC)=CC1=O`, the survivor count reads like this: (dose: 100.0 mg/kg/injection, schedule: Q04DX003 (ip), vehicle: other) 2 of 6; (dose: 200.0 mg/kg/injection, schedule: Q04DX003 (ip), vehicle: other) 0 of 6; (dose: 400.0 mg/kg/injection, schedule: Q04DX003 (ip), vehicle: other) 0 of 6.

For the molecule `FC1(F)C=C(c2ccccc2)C1(Cl)Cl`, the survivor count is on record as 6 of 6 under setting [1]; 3 of 6 under setting [2]; 3 of 6 (dose: 400.0 mg/kg/injection, schedule: Q04DX003 (ip), vehicle: Klucel (hydroxypropylcellulose) (HPC)).

On to `Nc1nc2nc3c(nc2c(=O)[nH]1)CN(c1ccc(C(=O)NC(CCC(=O)O)C(=O)O)cc1)C3=O` (centres undefined), for which the survivor count (dose: 400.0 mg/kg/injection, schedule: Q01DX009 (ip), vehicle: saline with Tween-80) was 3 of 6.

For the molecule `Clc1cc[c]([Sn]([O][Sn]([c]2ccc(Cl)cc2)([c]2ccc(Cl)cc2)[c]2ccc(Cl)cc2)([c]2ccc(Cl)cc2)[c]2ccc(Cl)cc2)cc1`, the survivor count is, setting by setting: (dose: 100.0 mg/kg/injection, schedule: Q04DX002 (ip), vehicle: Klucel (hydroxypropylcellulose) (HPC)) 1 of 3; (dose: 200.0 mg/kg/injection, schedule: Q04DX002 (ip), vehicle: Klucel (hydroxypropylcellulose) (HPC)) 0 of 3; (dose: 400.0 mg/kg/injection, schedule: Q04DX002 (ip), vehicle: Klucel (hydroxypropylcellulose) (HPC)) 0 of 3.

Turning to `c1ccc([P+](C2=NNCC2)(c2ccccc2)c2ccccc2)cc1`, the survivor count by setting is: (dose: 50.0 mg/kg/injection, schedule: Q01DX009 (ip), vehicle: Klucel (hydroxypropylcellulose) (HPC)) 0 of 3; (dose: 100.0 mg/kg/injection, schedule: Q01DX009 (ip), vehicle: Klucel (hydroxypropylcellulose) (HPC)) 0 of 3 and 0 of 6; under setting [1], 0 of 6; under setting [2], 0 of 6.

Values taken from PubChem BioAssay AID248 (DTP/NCI, 2004).
